Reference: ChEMBL document CHEMBL5465560, “Selectivity Literature for EUbOPEN Chemogenomic Library” (2024)

Chains of the proteins cited; added tags and fusions are not shown. Lines headed by an entry give the natural chain unless they say otherwise; changes in a name come on top.
UniProt Q13470: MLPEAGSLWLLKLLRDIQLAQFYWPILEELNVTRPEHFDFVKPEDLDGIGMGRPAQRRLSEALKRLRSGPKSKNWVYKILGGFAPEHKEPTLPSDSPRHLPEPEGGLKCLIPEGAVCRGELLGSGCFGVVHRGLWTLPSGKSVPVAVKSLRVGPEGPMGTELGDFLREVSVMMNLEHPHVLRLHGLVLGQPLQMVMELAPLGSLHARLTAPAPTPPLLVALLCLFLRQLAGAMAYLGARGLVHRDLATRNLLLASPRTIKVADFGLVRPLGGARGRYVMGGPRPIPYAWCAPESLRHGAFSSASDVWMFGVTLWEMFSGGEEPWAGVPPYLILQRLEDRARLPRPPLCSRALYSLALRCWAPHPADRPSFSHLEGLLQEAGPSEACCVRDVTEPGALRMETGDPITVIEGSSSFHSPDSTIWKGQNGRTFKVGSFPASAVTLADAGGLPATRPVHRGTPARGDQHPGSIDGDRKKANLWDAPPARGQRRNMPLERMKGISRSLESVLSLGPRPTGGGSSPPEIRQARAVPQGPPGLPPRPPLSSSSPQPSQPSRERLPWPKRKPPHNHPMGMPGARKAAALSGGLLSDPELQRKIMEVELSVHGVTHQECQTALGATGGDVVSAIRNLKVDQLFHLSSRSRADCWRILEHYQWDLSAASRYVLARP
UniProt P36894: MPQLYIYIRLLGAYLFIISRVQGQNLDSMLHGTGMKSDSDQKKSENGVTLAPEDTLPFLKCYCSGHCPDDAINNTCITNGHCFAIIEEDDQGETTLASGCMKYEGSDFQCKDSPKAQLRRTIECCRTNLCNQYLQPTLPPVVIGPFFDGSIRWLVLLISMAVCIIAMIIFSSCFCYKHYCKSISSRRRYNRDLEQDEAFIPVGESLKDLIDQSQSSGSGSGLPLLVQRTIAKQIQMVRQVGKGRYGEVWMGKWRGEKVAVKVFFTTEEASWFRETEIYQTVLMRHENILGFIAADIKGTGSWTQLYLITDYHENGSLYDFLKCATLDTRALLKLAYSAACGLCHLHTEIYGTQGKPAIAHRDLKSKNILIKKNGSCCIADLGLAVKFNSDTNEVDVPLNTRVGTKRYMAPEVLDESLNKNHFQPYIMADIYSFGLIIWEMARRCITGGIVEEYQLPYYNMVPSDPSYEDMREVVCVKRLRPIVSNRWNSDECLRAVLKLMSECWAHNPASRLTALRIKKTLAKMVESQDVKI
UniProt P49760, whole entry, looked up: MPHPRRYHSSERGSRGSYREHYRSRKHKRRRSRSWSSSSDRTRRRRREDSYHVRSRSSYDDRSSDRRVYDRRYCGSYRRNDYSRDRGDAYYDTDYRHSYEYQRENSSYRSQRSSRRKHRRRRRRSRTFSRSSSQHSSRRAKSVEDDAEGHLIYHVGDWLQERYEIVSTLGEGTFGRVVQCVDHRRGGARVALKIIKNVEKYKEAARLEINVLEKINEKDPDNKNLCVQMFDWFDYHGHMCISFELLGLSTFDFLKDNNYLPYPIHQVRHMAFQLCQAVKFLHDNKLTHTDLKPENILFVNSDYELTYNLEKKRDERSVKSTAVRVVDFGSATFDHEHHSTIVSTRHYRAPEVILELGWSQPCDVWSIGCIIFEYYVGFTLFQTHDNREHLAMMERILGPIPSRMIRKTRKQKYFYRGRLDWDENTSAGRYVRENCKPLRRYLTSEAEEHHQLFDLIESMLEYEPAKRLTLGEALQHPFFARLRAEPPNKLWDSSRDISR
UniProt Q9BUB5: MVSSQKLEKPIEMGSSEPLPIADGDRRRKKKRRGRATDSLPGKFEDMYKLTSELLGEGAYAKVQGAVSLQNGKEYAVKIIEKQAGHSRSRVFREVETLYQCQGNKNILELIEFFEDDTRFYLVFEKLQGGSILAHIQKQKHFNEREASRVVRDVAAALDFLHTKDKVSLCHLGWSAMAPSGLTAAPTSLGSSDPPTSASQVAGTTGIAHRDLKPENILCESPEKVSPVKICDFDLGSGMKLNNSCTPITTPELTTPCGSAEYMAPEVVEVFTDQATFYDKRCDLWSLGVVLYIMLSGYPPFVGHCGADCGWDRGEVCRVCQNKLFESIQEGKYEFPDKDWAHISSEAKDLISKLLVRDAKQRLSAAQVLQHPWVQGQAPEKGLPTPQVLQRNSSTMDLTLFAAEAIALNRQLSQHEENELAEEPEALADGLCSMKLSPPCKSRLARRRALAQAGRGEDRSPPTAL
UniProt O43353, whole entry: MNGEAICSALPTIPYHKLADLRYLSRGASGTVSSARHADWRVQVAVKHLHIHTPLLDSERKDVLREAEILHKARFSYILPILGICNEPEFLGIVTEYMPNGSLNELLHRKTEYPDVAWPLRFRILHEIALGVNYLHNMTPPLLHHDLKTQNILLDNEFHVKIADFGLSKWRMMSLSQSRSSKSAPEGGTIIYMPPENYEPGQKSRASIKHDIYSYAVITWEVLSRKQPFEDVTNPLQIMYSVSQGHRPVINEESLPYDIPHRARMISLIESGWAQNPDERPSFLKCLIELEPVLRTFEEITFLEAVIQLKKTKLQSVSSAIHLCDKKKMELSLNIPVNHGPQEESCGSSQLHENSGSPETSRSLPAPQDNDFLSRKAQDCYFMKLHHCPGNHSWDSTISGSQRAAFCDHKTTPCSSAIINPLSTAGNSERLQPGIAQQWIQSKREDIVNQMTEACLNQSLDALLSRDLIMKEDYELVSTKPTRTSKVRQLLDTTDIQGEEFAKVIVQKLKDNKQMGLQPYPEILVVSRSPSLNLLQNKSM
UniProt Q15349, whole entry: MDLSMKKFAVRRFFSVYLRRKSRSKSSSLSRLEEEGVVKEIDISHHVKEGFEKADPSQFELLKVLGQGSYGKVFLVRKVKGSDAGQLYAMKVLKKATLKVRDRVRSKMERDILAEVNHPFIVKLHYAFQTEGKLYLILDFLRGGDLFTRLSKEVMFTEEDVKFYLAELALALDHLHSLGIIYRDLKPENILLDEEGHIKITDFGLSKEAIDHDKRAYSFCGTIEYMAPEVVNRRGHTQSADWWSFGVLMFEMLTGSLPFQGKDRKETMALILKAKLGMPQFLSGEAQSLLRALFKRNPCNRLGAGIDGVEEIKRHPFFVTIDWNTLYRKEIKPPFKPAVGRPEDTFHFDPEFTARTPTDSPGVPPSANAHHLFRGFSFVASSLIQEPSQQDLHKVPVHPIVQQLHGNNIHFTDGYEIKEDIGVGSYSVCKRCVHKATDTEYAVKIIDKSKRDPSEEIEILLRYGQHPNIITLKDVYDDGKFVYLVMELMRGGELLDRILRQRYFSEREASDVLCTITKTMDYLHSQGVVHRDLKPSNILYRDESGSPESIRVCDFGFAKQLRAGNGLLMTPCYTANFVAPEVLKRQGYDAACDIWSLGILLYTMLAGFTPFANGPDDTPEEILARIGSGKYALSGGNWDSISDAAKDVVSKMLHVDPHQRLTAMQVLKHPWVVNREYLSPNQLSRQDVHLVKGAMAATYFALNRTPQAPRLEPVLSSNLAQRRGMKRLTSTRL
UniProt Q9NRP7: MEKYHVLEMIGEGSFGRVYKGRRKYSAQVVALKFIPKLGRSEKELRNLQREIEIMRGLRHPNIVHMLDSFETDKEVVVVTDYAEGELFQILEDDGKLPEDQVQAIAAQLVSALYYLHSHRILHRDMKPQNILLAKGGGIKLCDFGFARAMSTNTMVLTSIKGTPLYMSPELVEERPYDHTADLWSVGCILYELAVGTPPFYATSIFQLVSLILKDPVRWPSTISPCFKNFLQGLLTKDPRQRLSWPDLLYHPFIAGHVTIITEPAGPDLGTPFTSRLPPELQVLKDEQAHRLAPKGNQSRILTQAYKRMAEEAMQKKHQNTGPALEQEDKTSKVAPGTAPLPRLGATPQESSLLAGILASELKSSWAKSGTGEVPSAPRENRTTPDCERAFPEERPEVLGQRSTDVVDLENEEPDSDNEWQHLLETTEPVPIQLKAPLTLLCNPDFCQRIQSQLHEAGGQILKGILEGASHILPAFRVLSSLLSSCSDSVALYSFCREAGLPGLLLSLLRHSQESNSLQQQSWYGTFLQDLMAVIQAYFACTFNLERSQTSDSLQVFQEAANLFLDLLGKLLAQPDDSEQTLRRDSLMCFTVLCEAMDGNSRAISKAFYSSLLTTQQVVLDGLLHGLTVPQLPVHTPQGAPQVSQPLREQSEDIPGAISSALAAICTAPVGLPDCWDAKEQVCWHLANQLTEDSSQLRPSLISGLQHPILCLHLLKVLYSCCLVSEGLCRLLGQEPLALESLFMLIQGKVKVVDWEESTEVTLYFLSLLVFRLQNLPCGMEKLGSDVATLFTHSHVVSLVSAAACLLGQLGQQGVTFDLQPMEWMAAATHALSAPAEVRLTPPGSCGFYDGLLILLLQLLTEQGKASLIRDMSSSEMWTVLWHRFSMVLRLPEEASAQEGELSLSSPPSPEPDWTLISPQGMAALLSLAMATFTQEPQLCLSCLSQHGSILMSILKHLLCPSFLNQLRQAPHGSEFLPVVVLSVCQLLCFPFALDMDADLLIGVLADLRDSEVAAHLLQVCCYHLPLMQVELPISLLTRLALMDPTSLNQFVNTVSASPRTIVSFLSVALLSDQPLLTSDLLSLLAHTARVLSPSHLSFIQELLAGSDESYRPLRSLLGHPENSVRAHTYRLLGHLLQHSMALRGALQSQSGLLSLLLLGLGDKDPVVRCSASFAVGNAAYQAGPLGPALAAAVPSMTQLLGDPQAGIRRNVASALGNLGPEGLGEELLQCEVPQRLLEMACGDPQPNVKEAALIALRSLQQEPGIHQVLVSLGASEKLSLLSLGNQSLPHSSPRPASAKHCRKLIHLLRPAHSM
UniProt P15056, whole entry V600E: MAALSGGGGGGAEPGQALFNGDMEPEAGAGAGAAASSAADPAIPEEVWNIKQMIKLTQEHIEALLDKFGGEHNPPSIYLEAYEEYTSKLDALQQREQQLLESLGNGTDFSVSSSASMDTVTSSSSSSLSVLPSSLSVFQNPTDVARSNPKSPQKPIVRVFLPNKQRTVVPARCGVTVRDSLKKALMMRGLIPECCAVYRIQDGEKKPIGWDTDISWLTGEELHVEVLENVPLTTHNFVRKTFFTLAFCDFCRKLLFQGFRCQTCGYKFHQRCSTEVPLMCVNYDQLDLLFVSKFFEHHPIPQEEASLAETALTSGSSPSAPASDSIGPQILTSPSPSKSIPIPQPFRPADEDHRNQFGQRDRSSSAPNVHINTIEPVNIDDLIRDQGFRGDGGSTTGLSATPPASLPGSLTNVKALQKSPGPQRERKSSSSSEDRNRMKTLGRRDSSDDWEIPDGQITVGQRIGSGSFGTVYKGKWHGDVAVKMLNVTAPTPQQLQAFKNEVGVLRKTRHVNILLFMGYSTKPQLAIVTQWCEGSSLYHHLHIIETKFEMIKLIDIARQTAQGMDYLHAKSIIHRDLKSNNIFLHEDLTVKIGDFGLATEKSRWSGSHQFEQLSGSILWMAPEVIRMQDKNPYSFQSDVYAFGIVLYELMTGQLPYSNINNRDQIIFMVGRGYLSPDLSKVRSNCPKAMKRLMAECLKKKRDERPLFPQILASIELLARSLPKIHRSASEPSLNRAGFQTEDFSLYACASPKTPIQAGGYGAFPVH
UniProt P15056, whole entry: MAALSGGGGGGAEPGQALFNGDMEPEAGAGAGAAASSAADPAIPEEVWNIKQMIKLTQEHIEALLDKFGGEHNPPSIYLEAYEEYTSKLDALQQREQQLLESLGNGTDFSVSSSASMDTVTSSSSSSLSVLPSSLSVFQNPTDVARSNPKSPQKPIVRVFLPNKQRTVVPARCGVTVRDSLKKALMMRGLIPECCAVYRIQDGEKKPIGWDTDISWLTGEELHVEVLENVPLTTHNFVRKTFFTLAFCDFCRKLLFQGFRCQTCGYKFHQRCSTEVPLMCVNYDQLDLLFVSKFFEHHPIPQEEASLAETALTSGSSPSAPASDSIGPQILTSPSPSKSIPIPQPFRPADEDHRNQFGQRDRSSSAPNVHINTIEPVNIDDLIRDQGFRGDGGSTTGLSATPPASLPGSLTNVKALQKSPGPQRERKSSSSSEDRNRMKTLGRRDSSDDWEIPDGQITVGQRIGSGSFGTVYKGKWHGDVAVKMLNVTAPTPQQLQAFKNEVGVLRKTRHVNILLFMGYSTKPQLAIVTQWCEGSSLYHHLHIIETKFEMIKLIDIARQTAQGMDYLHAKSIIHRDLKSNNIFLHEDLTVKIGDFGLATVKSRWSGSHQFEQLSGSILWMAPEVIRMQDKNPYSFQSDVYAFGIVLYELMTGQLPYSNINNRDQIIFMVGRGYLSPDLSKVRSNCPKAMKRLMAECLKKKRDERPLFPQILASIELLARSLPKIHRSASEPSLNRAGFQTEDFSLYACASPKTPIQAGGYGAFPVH

Tests used:
Conditions in all cases: at 1 µM
[1] = molecular target: Non-receptor tyrosine-protein kinase TNK1 (Homo sapiens) (UniProt Q13470); assay: Selectivity interaction (KinomeScan (DiscoverX)) EUB0001581a TNK1
[2] = molecular target: High affinity nerve growth factor receptor (Homo sapiens, UniProt P04629); assay: Selectivity interaction (KinomeScan (DiscoverX)) EUB0001581a NTRK1
[3] = molecular target: Serine/threonine-protein kinase 33 (Homo sapiens) (UniProt Q9BYT3); assay: Selectivity interaction (KinomeScan (DiscoverX)) EUB0001581a STK33
[4] = molecular target: Bone morphogenetic protein receptor type-1A (Homo sapiens, UniProt P36894); assay: Selectivity interaction (KinomeScan (DiscoverX)) EUB0001581a BMPR1A
[5] = molecular target: Serine/threonine-protein kinase 26 (Homo sapiens, UniProt Q9P289); assay: Selectivity interaction (KinomeScan (DiscoverX)) EUB0001581a STK26
[6] = molecular target: Tyrosine-protein kinase JAK3 (Homo sapiens) (UniProt P52333); assay: Selectivity interaction (KinomeScan (DiscoverX)) EUB0001581a JAK3
[7] = tested on: Receptor-type tyrosine-protein kinase FLT3 (Homo sapiens), P36888 [K663Q]; assay: (§1) Selectivity interaction (KinomeScan (DiscoverX)) EUB0001581a FLT3
[8] = tested on: Receptor-type tyrosine-protein kinase FLT3 (Homo sapiens), P36888 [R834Q]; assay: as §1
[9] = tested on: Receptor-type tyrosine-protein kinase FLT3 (Homo sapiens), P36888 [UNDEFINED MUTATION]; assay: as §1
[10] = tested on: Receptor-type tyrosine-protein kinase FLT3 (Homo sapiens), P36888 [N841I]; assay: as §1
[11] = tested on: Receptor-type tyrosine-protein kinase FLT3 (Homo sapiens), P36888 [D835Y]; assay: as §1
[12] = molecular target: Cyclin-dependent kinase 15 (Homo sapiens) (UniProt Q96Q40); assay: Selectivity interaction (KinomeScan (DiscoverX)) EUB0001581a CDK15
[13] = molecular target: Serine/threonine-protein kinase mTOR (Homo sapiens, UniProt P42345); assay: Selectivity interaction (KinomeScan (DiscoverX)) EUB0001581a MTOR
[14] = molecular target: Dual specificity tyrosine-phosphorylation-regulated kinase 2 (Homo sapiens) (UniProt Q92630); assay: Selectivity interaction (KinomeScan (DiscoverX)) EUB0001581a DYRK2
[15] = molecular target: Dual specificity mitogen-activated protein kinase kinase 1 (Homo sapiens, UniProt Q02750); assay: Selectivity interaction (KinomeScan (DiscoverX)) EUB0001581a MAP2K1
[16] = molecular target: RAC-beta serine/threonine-protein kinase (Homo sapiens) (UniProt P31751); assay: Selectivity interaction (KinomeScan (DiscoverX)) EUB0001581a AKT2
[17] = molecular target: Dual specificity protein kinase CLK2 (Homo sapiens, UniProt P49760); assay: Selectivity interaction (KinomeScan (DiscoverX)) EUB0001581a CLK2
[18] = tested on: Tyrosine-protein kinase ABL1 (Homo sapiens), P00519 [Q252H]; assay: (§2) Selectivity interaction (KinomeScan (DiscoverX)) EUB0001581a ABL1
[19] = tested on: Tyrosine-protein kinase ABL1 (Homo sapiens), P00519 [Y253F]; assay: as §2
[20] = tested on: Tyrosine-protein kinase ABL1 (Homo sapiens), P00519 [E255K]; assay: as §2
[21] = tested on: Tyrosine-protein kinase ABL1 (Homo sapiens), P00519 [F317I]; assay: as §2
[22] = molecular target: Tyrosine-protein kinase ABL1 (Homo sapiens, UniProt P00519); assay: as §2
[23] = tested on: Tyrosine-protein kinase ABL1 (Homo sapiens), P00519 [M351T]; assay: as §2
[24] = molecular target: Dual specificity protein kinase TTK (Homo sapiens) (UniProt P33981); assay: Selectivity interaction (KinomeScan (DiscoverX)) EUB0001581a TTK
[25] = molecular target: Serine/threonine-protein kinase BRSK1 (Homo sapiens) (UniProt Q8TDC3); assay: Selectivity interaction (KinomeScan (DiscoverX)) EUB0001581a BRSK1
[26] = molecular target: MAP kinase-interacting serine/threonine-protein kinase 1 (Homo sapiens) (UniProt Q9BUB5); assay: Selectivity interaction (KinomeScan (DiscoverX)) EUB0001581a MKNK1
[27] = molecular target: Ephrin type-A receptor 6 (Homo sapiens) (UniProt Q9UF33)
[28] = molecular target: Cyclin-dependent kinase 11B (Homo sapiens) (UniProt P21127); assay: Selectivity interaction (KinomeScan (DiscoverX)) EUB0001581a CDK11B
[29] = molecular target: Receptor-interacting serine/threonine-protein kinase 2 (Homo sapiens, UniProt O43353); assay: Selectivity interaction (KinomeScan (DiscoverX)) EUB0001581a RIPK2
[30] = molecular target: Tyrosine-protein kinase FRK (Homo sapiens) (UniProt P42685); assay: Selectivity interaction (KinomeScan (DiscoverX)) EUB0001581a FRK
[31] = molecular target: Tyrosine-protein kinase receptor Tie-1 (Homo sapiens) (UniProt P35590); assay: Selectivity interaction (KinomeScan (DiscoverX)) EUB0001581a TIE1
[32] = molecular target: Tyrosine-protein kinase ZAP-70 (Homo sapiens) (UniProt P43403); assay: Selectivity interaction (KinomeScan (DiscoverX)) EUB0001581a ZAP70
[33] = molecular target: Serine/threonine-protein kinase 10 (Homo sapiens) (UniProt O94804); assay: Selectivity interaction (KinomeScan (DiscoverX)) EUB0001581a STK10
[34] = molecular target: Protein-tyrosine kinase 2-beta (Homo sapiens) (UniProt Q14289); assay: Selectivity interaction (KinomeScan (DiscoverX)) EUB0001581a PTK2B
[35] = molecular target: MAP kinase-interacting serine/threonine-protein kinase 2 (Homo sapiens, UniProt Q9HBH9); assay: Selectivity interaction (KinomeScan (DiscoverX)) EUB0001581a MKNK2
[36] = molecular target: Mitogen-activated protein kinase 10 (Homo sapiens, UniProt P53779); assay: Selectivity interaction (KinomeScan (DiscoverX)) EUB0001581a MAPK10
[37] = molecular target: Ephrin type-A receptor 8 (Homo sapiens) (UniProt P29322); assay: Selectivity interaction (KinomeScan (DiscoverX)) EUB0001581a EPHA8
[38] = molecular target: Ribosomal protein S6 kinase alpha-2 (Homo sapiens) (UniProt Q15349); assay: Selectivity interaction (KinomeScan (DiscoverX)) EUB0001581a RPS6KA2
[39] = molecular target: Serine/threonine-protein kinase 36 (Homo sapiens) (UniProt Q9NRP7); assay: Selectivity interaction (KinomeScan (DiscoverX)) EUB0001581a STK36
[40] = tested on: Serine/threonine-protein kinase B-raf (Homo sapiens), P15056 [V600E]; assay: (§3) Selectivity interaction (KinomeScan (DiscoverX)) EUB0001581a BRAF
[41] = molecular target: Serine/threonine-protein kinase B-raf (Homo sapiens) (UniProt P15056); assay: as §3
[42] = molecular target: Dual specificity protein kinase CLK4 (Homo sapiens, UniProt Q9HAZ1); assay: Selectivity interaction (KinomeScan (DiscoverX)) EUB0001581a CLK4
[43] = tested on: Tyrosine-protein kinase ABL1 (Homo sapiens), P00519 [F317L]; assay: as §2

C[C@@H]1C[C@H](N)C[C@H](c2ccncc2NC(=O)c2ccc(F)c(-c3c(F)cccc3F)n2)C1
% of control [1]: 100% | % of control [2]: 90% | % of control [3]: 99% | % of control [4]: 84% | % of control [5]: 100% | % of control [6]: 100% | % of control [7]: 82% | % of control [8]: 100% | % of control [9]: 79% | % of control [10]: 80% | % of control [11]: 38% | % of control [12]: 100% | % of control [13]: 100% | % of control [14]: 100% | % of control [15]: 100% | % of control [16]: 100% | % of control [17]: 52% | % of control [18]: 91% | % of control [19]: 91% | % of control [20]: 88% | % of control [21]: 100% | % of control [22]: 100% | % of control [23]: 100% | % of control [24]: 100% | % of control [25]: 100% | % of control [26]: 74% | % of control [27]: 95% | % of control [28]: 92% | % of control [29]: 100% | % of control [30]: 100% | % of control [31]: 100% | % of control [32]: 88% | % of control [33]: 99% | % of control [34]: 100% | % of control [35]: 100% | % of control [36]: 100% | % of control [37]: 91% | % of control [38]: 80% | % of control [39]: 97% | % of control [40]: 99% | % of control [41]: 90% | % of control [42]: 53% | % of control [43]: 100%
